Laboratory results as given in PubChem BioAssay.
This is one part of the list. Further columns of the screen follow, without active or inactive calls. For part of these data: Compounds called inactive in the main read-out are mostly missing here. Peptide text beside a SMILES is read from it.

Key:
PubChem AID 1586 = conditions: yeast two-hybrid polyglutamine protein interaction, reporter readout; measured here: averaged growth delta OD
[1] = enhancers of SMN2 over SMN1 splicing, cell-based, SMN2/SMN1 luciferase reporters (AID 1598); conditions: SMN2 vs SMN1 luciferase splicing reporter cells, at 10 µM; SMN1 luciferase ratio: measured here: SMN1 luciferase reporter average; SMN2 luciferase ratio: measured here: SMN2 luciferase reporter average, stronger effect = higher value
[2] = protection against mutant huntingtin cytotoxicity, PC12 cells, LDH release (AID 1610); conditions: PC12 mutant huntingtin toxicity, final LDH at 4 uM, stronger effect = lower value

CC(=O)Oc1ccc2c(c1)CCC1C2CC[C@@]2(C)C1CC[C@@H]2OC(C)=O (stereo not given in full)
signal change (36 h minus 0 h) (PubChem AID 1586): 0.0613 | SMN1 luciferase ratio [1]: 0.93 | SMN2 luciferase ratio [1]: 0.88 | normalised LDH release [2]: 0.754

c1coc(CNc2ncnc3nc[nH]c23)c1
signal change (36 h minus 0 h) (PubChem AID 1586): 0.13 | SMN1 luciferase ratio [1]: 0.85 | SMN2 luciferase ratio [1]: 0.84 | normalised LDH release [2]: 0.489

Nc1ccc(S(=O)(=O)Nc2nccs2)cc1
signal change (36 h minus 0 h) (PubChem AID 1586): 0.047 | SMN1 luciferase ratio [1]: 0.95 | SMN2 luciferase ratio [1]: 0.87 | normalised LDH release [2]: 0.732

CN1C2CC[C@H]1CC(OC(=O)C(O)c1ccccc1)C2 (stereo not given in full)
signal change (36 h minus 0 h) (PubChem AID 1586): 0.0326 | normalised LDH release [2]: 0.929

Cc1cc(NC(=O)C2=C(O)c3ccccc3S(=O)(=O)N2C)no1
signal change (36 h minus 0 h) (PubChem AID 1586): 0.433 | SMN1 luciferase ratio [1]: 0.94 | SMN2 luciferase ratio [1]: 0.89 | normalised LDH release [2]: 0.643

O=C(C1CCCCC1)N1CC(=O)N2CCc3ccccc3C2C1 (stereo not given)
signal change (36 h minus 0 h) (PubChem AID 1586): 0.231 | SMN1 luciferase ratio [1]: 0.86 | SMN2 luciferase ratio [1]: 0.89 | normalised LDH release [2]: 0.97

CO[C@@]1(NC(=O)Cc2cccs2)C(=O)N2C(C(=O)O)=C(COC(N)=O)CS[C@@H]21
signal change (36 h minus 0 h) (PubChem AID 1586): 0.203 | normalised LDH release [2]: 1.06

COc1ccc2c(c1OC)C(=O)O[C@H]2[C@@H]1c2ccccc2CCN1C
signal change (36 h minus 0 h) (PubChem AID 1586): 0.187 | SMN1 luciferase ratio [1]: 0.84 | SMN2 luciferase ratio [1]: 0.87 | normalised LDH release [2]: 0.941

CCN(CC)CCOC(=O)c1ccc(N)cc1
signal change (36 h minus 0 h) (PubChem AID 1586): 0.0631 | SMN1 luciferase ratio [1]: 0.91 | SMN2 luciferase ratio [1]: 0.96 | normalised LDH release [2]: 0.871

CN1CC(=O)N=C1N
signal change (36 h minus 0 h) (PubChem AID 1586): 0.152 | SMN1 luciferase ratio [1]: 0.92 | SMN2 luciferase ratio [1]: 0.83 | normalised LDH release [2]: 1.13

O=C(O)c1cc(=O)c2c(OCC(O)COc3cccc4oc(C(=O)O)cc(=O)c34)cccc2o1
signal change (36 h minus 0 h) (PubChem AID 1586): 0.0763 | SMN1 luciferase ratio [1]: 0.87 | SMN2 luciferase ratio [1]: 0.99 | normalised LDH release [2]: 1.02

CC(C(=O)O)c1ccc(N2Cc3ccccc3C2=O)cc1 (stereo not given)
signal change (36 h minus 0 h) (PubChem AID 1586): 0.185 | normalised LDH release [2]: 0.937

C[C@H]1O[C@@H](O[C@H]2[C@@H](O)C[C@H](O[C@H]3[C@@H](O)C[C@H](O[C@H]4CC[C@]5(C)C6C[C@@H](O)[C@]7(C)[C@@H](C8=CC(=O)OC8)CC[C@]7(O)C6CC[C@@H]5C4)O[C@@H]3C)O[C@@H]2C)C[C@H](O)[C@@H]1O (stereo not given in full)
signal change (36 h minus 0 h) (PubChem AID 1586): 0.258 | SMN1 luciferase ratio [1]: 0.05 | SMN2 luciferase ratio [1]: 0.09 | normalised LDH release [2]: 0.686

COc1c2ccoc2cc2oc(=O)ccc12
signal change (36 h minus 0 h) (PubChem AID 1586): 0.148 | SMN1 luciferase ratio [1]: 0.85 | SMN2 luciferase ratio [1]: 0.94 | normalised LDH release [2]: 0.847

Nc1nc2ncc(CNc3ccc(C(=O)N[C@@H](CCC(=O)O)C(=O)O)cc3)nc2c(=O)[nH]1
signal change (36 h minus 0 h) (PubChem AID 1586): 0.255 | SMN1 luciferase ratio [1]: 0.83 | SMN2 luciferase ratio [1]: 1.03 | normalised LDH release [2]: 0.932

NCCCCC(N)C(=O)NCC(=O)NC(Cc1cnc[nH]1)C(=O)NC(CCCCN)C(=O)O (stereo not given) (H-KGHK-OH; configuration not given here)
signal change (36 h minus 0 h) (PubChem AID 1586): 0.39 | SMN1 luciferase ratio [1]: 0.85 | SMN2 luciferase ratio [1]: 0.88 | normalised LDH release [2]: 1.08

C[n+]1ccccc1/C=N/O
signal change (36 h minus 0 h) (PubChem AID 1586): 0.141 | SMN1 luciferase ratio [1]: 0.89 | SMN2 luciferase ratio [1]: 0.96 | normalised LDH release [2]: 0.795

O=C1OCCN1/N=C/c1ccc([N+](=O)[O-])o1
signal change (36 h minus 0 h) (PubChem AID 1586): 0.194 | SMN1 luciferase ratio [1]: 0.9 | SMN2 luciferase ratio [1]: 0.9 | normalised LDH release [2]: 0.958

COc1ccc2c3c1O[C@H]1C[C@@H](O)C=C[C@@]31CCN(C)C2
signal change (36 h minus 0 h) (PubChem AID 1586): 0.135 | SMN1 luciferase ratio [1]: 0.94 | SMN2 luciferase ratio [1]: 0.91 | normalised LDH release [2]: 1.13

NC12CC3CC(CC(C3)C1)C2
signal change (36 h minus 0 h) (PubChem AID 1586): 0.0749 | normalised LDH release [2]: 1.1

CC(=O)Oc1ccc2c(c1)CCC1C2CCC2(C)C(=O)CCC12 (stereo not given)
signal change (36 h minus 0 h) (PubChem AID 1586): 0.024 | SMN1 luciferase ratio [1]: 0.88 | SMN2 luciferase ratio [1]: 0.95 | normalised LDH release [2]: 1.13

CC(=O)N[C@@H](CCC(=O)O)C(=O)O
signal change (36 h minus 0 h) (PubChem AID 1586): 0.178 | SMN1 luciferase ratio [1]: 0.98 | SMN2 luciferase ratio [1]: 0.91 | normalised LDH release [2]: 1.18

O=c1c(-c2ccc(O)cc2)coc2cc(O)ccc12
signal change (36 h minus 0 h) (PubChem AID 1586): 0.486 | SMN1 luciferase ratio [1]: 1.09 | SMN2 luciferase ratio [1]: 1.11 | normalised LDH release [2]: 1.05

NC(N)=NCCCCN=C(N)N
signal change (36 h minus 0 h) (PubChem AID 1586): 0.118 | SMN1 luciferase ratio [1]: 0.92 | SMN2 luciferase ratio [1]: 0.86 | normalised LDH release [2]: 0.986

O[N+]1=CC=CCC1=S.On1ccccc1=S.[Zn]
signal change (36 h minus 0 h) (PubChem AID 1586): -0.00665 | normalised LDH release [2]: 0.876
